Measured values as given in the supplement of paper PMC12823440, “Inhibitors supercharge kinase turnover through native proteolytic circuits” (Nature, 2025).
Where a name gives a salt, the structure may show the parent alone. The list shows a part of the results. Hit calls seldom repeat between salt and free forms of one compound.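 Kinases were expressed as nanoluciferase fusions in K562 cells and luminescence was read every 4 h between 2 and 18 h as percent of control, DMSO set to 100% and a positive control to 0%. A time point counts as decreased when the signal drops significantly (2 sigma). The hit call is the authors' own, does not follow from the count of time points alone, and its rule is not shown.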

Amino acid sequences for entries named in this document (tags omitted). A change or cut given only in a name is not applied to a line headed by its entry.
UniProt Q9Y616: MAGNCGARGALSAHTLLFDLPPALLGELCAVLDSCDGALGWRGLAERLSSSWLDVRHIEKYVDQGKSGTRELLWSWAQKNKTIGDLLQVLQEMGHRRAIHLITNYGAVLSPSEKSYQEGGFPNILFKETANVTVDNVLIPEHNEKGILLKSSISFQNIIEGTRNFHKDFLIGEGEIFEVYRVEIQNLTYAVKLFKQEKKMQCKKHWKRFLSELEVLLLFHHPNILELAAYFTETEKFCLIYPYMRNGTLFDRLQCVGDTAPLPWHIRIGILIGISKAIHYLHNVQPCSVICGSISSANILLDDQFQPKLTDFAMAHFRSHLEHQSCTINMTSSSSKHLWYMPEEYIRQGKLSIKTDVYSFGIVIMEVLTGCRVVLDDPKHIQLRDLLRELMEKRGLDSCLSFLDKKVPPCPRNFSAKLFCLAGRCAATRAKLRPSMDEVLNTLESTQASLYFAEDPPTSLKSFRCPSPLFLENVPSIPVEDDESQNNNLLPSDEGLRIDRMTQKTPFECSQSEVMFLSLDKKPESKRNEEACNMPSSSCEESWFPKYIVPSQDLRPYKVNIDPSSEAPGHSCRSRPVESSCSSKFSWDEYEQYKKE
UniProt P23458: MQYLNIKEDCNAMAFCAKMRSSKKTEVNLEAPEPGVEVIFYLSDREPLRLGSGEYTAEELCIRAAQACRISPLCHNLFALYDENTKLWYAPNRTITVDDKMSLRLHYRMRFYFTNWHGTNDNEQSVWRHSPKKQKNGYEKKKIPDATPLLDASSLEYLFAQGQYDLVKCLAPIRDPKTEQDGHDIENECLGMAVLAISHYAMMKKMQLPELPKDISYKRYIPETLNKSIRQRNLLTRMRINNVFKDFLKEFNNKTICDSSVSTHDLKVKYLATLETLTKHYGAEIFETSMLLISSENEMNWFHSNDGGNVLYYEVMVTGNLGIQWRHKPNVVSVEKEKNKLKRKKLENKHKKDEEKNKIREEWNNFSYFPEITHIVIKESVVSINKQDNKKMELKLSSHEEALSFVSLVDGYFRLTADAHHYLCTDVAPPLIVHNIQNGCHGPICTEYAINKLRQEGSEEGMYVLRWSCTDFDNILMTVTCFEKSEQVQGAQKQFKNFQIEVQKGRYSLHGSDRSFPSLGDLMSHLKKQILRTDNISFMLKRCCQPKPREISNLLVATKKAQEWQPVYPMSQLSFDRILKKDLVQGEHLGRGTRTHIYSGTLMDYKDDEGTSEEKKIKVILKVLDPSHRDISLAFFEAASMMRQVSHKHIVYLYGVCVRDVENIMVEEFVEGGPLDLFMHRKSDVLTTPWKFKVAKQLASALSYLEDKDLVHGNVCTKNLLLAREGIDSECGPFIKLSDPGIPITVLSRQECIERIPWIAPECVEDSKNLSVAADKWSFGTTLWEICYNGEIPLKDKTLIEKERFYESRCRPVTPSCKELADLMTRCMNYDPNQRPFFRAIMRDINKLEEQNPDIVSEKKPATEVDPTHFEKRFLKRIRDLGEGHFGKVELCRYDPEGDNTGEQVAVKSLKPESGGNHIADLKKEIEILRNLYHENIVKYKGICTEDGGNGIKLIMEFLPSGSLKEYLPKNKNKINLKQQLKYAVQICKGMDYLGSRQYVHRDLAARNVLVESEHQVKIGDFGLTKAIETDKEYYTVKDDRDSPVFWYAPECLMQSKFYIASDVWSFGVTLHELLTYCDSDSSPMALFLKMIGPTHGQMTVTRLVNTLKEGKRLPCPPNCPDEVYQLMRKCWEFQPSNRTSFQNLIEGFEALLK
UniProt P06239: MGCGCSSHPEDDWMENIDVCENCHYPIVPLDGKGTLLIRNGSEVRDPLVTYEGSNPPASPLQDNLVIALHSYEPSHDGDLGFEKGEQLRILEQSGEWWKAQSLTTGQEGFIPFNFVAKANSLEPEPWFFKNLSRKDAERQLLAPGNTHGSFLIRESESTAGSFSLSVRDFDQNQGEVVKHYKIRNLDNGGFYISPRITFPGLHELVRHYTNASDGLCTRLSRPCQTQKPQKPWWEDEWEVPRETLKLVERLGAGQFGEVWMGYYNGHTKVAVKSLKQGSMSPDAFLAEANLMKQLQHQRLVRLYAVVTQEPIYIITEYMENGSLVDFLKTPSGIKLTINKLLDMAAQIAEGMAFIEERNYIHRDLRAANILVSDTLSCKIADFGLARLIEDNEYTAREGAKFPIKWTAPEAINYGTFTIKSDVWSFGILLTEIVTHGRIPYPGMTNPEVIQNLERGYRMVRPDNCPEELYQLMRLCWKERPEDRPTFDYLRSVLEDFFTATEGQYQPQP
UniProt P53667: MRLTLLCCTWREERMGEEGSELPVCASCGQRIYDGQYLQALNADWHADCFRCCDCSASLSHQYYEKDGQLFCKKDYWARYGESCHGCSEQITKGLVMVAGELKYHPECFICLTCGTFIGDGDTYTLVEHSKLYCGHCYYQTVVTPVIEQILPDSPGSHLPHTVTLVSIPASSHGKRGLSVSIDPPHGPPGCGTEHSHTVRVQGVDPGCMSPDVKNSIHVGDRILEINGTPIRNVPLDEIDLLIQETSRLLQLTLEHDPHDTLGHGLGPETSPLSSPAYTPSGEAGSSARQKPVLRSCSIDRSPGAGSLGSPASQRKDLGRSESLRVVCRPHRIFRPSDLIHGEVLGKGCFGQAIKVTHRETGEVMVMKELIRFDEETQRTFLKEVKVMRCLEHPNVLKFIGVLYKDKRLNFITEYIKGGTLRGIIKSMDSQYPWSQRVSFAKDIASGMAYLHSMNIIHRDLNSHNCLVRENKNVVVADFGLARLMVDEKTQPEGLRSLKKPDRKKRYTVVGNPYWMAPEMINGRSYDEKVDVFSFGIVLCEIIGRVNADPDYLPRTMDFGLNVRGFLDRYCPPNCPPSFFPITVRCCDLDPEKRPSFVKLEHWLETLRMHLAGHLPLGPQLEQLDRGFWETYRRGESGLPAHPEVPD
UniProt P53671: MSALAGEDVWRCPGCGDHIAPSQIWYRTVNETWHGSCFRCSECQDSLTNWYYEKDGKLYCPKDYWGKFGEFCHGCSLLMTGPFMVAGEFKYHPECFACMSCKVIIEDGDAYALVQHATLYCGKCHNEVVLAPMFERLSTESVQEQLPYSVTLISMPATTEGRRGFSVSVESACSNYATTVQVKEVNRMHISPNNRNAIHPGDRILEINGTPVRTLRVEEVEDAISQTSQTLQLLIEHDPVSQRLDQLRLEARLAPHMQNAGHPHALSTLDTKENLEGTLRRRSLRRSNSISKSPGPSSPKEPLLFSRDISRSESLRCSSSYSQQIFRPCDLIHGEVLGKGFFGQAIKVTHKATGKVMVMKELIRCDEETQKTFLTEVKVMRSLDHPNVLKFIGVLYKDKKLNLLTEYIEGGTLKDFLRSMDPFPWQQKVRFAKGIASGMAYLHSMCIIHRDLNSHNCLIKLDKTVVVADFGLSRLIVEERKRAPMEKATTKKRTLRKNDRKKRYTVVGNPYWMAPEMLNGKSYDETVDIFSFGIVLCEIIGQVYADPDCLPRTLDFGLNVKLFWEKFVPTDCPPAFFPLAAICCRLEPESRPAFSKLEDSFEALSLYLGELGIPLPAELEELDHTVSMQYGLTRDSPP
UniProt Q8IWU2: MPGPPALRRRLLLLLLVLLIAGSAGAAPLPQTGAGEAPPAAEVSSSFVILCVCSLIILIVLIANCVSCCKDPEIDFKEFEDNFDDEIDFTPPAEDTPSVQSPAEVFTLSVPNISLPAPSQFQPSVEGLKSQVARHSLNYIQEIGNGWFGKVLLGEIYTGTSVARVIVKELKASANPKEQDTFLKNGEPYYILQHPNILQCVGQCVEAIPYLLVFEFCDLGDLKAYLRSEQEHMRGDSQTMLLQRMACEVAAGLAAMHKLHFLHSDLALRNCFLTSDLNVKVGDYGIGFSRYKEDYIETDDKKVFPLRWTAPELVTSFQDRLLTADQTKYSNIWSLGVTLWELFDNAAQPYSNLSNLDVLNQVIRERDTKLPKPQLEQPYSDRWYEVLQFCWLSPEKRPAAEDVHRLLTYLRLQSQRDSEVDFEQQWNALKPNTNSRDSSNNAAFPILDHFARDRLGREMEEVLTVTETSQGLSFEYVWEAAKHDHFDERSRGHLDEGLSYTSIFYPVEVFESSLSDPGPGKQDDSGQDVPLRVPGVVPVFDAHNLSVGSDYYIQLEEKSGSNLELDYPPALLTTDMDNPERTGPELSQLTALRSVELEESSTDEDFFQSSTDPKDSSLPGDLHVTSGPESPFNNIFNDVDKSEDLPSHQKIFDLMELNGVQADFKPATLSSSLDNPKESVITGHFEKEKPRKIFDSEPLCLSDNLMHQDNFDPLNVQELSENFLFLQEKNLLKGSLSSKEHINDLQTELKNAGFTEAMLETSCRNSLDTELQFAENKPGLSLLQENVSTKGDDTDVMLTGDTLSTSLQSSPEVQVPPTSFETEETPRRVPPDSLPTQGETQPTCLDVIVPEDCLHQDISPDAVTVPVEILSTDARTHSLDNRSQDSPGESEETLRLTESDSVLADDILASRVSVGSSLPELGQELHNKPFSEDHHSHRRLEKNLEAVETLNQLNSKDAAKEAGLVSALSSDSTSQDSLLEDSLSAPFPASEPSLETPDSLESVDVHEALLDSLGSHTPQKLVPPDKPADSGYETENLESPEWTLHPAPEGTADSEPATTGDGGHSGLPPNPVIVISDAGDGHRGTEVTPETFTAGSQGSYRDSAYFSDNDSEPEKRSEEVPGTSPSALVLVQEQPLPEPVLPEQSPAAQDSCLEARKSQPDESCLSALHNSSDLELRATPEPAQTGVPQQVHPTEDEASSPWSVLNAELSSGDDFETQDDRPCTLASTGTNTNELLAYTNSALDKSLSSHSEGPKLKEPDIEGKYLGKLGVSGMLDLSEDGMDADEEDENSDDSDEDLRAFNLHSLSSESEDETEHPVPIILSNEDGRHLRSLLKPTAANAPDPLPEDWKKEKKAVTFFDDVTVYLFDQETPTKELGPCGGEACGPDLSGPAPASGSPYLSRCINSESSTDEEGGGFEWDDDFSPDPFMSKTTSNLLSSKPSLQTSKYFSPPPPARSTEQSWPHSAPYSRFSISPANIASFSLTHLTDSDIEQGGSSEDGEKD
UniProt P07948: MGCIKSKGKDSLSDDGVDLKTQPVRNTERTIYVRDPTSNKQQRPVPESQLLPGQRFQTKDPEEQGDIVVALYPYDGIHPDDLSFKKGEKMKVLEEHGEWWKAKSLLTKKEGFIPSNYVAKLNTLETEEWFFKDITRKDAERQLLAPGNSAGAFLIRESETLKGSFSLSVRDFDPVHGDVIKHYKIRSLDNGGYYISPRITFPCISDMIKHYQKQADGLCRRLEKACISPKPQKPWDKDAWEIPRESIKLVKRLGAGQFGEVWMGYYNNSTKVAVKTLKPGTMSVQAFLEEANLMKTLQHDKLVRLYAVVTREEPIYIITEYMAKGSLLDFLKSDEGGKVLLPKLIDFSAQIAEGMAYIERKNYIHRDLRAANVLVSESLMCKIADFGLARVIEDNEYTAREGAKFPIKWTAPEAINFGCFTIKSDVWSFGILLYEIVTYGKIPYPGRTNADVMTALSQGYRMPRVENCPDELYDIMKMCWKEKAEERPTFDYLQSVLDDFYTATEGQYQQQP
UniProt Q12851: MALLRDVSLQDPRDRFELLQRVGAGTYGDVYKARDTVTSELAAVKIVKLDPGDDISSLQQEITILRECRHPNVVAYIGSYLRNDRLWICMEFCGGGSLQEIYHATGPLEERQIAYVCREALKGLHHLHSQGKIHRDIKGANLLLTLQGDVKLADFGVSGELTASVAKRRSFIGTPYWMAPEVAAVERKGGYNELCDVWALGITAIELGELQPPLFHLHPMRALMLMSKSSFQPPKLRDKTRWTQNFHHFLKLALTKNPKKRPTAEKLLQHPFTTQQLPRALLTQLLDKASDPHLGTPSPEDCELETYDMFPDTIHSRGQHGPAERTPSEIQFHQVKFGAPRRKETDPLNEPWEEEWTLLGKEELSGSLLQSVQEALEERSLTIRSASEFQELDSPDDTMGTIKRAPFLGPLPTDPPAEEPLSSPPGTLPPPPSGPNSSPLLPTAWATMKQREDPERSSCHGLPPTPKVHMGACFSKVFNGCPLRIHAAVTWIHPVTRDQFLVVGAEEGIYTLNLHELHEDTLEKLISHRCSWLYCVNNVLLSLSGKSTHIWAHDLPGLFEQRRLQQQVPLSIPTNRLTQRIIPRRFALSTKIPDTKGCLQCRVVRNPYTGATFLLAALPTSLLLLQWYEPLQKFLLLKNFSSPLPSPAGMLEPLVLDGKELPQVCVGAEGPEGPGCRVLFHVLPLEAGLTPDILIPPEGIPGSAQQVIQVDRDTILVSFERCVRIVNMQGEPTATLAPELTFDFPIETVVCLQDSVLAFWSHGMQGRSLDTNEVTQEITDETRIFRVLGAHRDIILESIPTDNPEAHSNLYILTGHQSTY

What was measured:
Experiment in all cases: kinase-Nluc reporter destabilization hit call (1 = scored as downregulated) (binary); higher = compound decreases kinase abundance
Conditions in all cases: K562; 2-18 h
IRAK3 = IRAK3 (UniProt Q9Y616)
JAK1 = JAK1 (UniProt P23458)
LCK = LCK (UniProt P06239)
LIMK1 = LIMK1 (UniProt P53667)
LIMK2 = LIMK2 (UniProt P53671)
LMTK2 = LMTK2 (UniProt Q8IWU2)
LYN = LYN (UniProt P07948)
MAP2K1 = MAP2K1 (UniProt Q02750)
MAP2K2 = MAP2K2 (UniProt P36507)
MAP4K2 = MAP4K2 (UniProt Q12851)

Measured: kinase-Nluc reporter destabilization hit call

N#CC(C#N)=Cc1ccc(O)c(O)c1 [Tyrphostin 23] (10 µM)
inactive: IRAK3 = 0 | JAK1 = 0 | LCK 0 | LIMK1 = 0 | LIMK2 = 0 | LMTK2 = 0 | LYN 0 | MAP2K1 = 0 | MAP2K2 = 0 | MAP4K2 = 0

C=C[C@H]1CN2CC[C@]3(C(=O)Nc4ccccc43)[C@@H]2C[C@@H]1/C(=C\OC)C(=O)OC [Corynoxeine] (2 µM)
inactive: IRAK3 = 0 | JAK1 = 0 | LCK 0 | LIMK1 = 0 | LIMK2 = 0 | LMTK2 = 0 | LYN 0 | MAP2K1 = 0 | MAP2K2 = 0 | MAP4K2 = 0

CC(C)=CC[C@@H](OC(=O)CC(C)(C)O)C1=CC(=O)c2c(O)ccc(O)c2C1=O [β-Hydroxyisovalerylshikonin] (2.5 µM)
inactive: IRAK3 = 0 | JAK1 = 0 | LCK 0 | LIMK1 = 0 | LIMK2 = 0 | LMTK2 = 0 | LYN 0 | MAP2K1 = 0 | MAP2K2 = 0 | MAP4K2 = 0

Cn1cc(C2=C(c3cn(C4CCN(Cc5ccccn5)CC4)c4ccccc34)C(=O)NC2=O)c2ccccc21 [Enzastaurin] (10 µM)
inactive: IRAK3 = 0 | JAK1 = 0 | LCK 0 | LIMK1 = 0 | LIMK2 = 0 | LMTK2 = 0 | LYN 0 | MAP2K1 = 0 | MAP2K2 = 0 | MAP4K2 = 0

O=C(N[C@@H](COc1ccc2[nH]c(=O)[nH]c2c1)c1ccccc1)c1cccn(Cc2ccc(F)c(F)c2)c1=O (2.5 µM)
inactive: IRAK3 = 0 | JAK1 = 0 | LCK 0 | LIMK1 = 0 | LIMK2 = 0 | LMTK2 = 0 | LYN 0 | MAP2K1 = 0 | MAP2K2 = 0 | MAP4K2 = 0

O=c1ccc2cc(O[C@@H]3O[C@H](CO)[C@@H](O)[C@H](O)[C@H]3O)c(O)cc2o1 [Esculin] (10 µM)
inactive: IRAK3 = 0 | JAK1 = 0 | LCK 0 | LIMK1 = 0 | LIMK2 = 0 | LMTK2 = 0 | LYN 0 | MAP2K1 = 0 | MAP2K2 = 0 | MAP4K2 = 0

C[C@H]1CC[C@]2(NC1)O[C@H]1C[C@H]3[C@@H]4CC[C@H]5C[C@@H](O)CC[C@]5(C)[C@H]4CC[C@]3(C)[C@H]1[C@@H]2C [Tomatidine (hydrochloride)] (10 µM)
inactive: IRAK3 = 0 | JAK1 = 0 | LCK 0 | LIMK1 = 0 | LIMK2 = 0 | LMTK2 = 0 | LYN 0 | MAP2K1 = 0 | MAP2K2 = 0 | MAP4K2 = 0

C[C@H](CCC(=O)O)C[C@H](C)C[C@H](C)C(=O)/C=C(\O)[C@H](C)C[C@H](C)C/C=C/[C@@H](C)[C@@H](O)[C@@H](C)[C@@H](O)C[C@@H]1CC[C@@](C)([C@H]2CC[C@@](C)([C@@H](C)O)O2)O1 [Ionomycin (calcium)] (2.5 µM)
inactive: IRAK3 = 0 | JAK1 = 0 | LCK 0 | LIMK1 = 0 | LIMK2 = 0 | LMTK2 = 0 | LYN 0 | MAP2K1 = 0 | MAP2K2 = 0 | MAP4K2 = 0

Cc1[nH]ncc1-c1cc2nc([C@H]3CC4CCN3CC4)[nH]c(=O)c2s1 [(R)-Simurosertib] (10 µM)
inactive: IRAK3 = 0 | JAK1 = 0 | LCK 0 | LIMK1 = 0 | LIMK2 = 0 | LMTK2 = 0 | LYN 0 | MAP2K1 = 0 | MAP2K2 = 0 | MAP4K2 = 0

O=[N+]([O-])/C=C/c1ccc2c(c1)OCO2 (2.5 µM)
inactive: IRAK3 = 0 | JAK1 = 0 | LCK 0 | LIMK1 = 0 | LIMK2 = 0 | LMTK2 = 0 | LYN 0 | MAP2K1 = 0 | MAP2K2 = 0 | MAP4K2 = 0

COC[C@H]1OC(=O)c2coc3c2[C@@]1(C)C1=C(C3=O)[C@@H]2CCC(=O)[C@@]2(C)C[C@H]1OC(C)=O [Wortmannin] (2.5 µM)
inactive: IRAK3 = 0 | JAK1 = 0 | LCK 0 | LIMK1 = 0 | LIMK2 = 0 | LMTK2 = 0 | LYN 0 | MAP2K1 = 0 | MAP2K2 = 0 | MAP4K2 = 0

CN(C)C(=O)c1ccc(Cn2c(C(=O)O)cc3c(Br)cc(Sc4ccc(Cl)c(Cl)c4)cc32)cc1 [Rheb inhibitor NR1] (10 µM)
inactive: IRAK3 = 0 | JAK1 = 0 | LCK 0 | LIMK1 = 0 | LIMK2 = 0 | LMTK2 = 0 | LYN 0 | MAP2K1 = 0 | MAP2K2 = 0 | MAP4K2 = 0

CCN1CCN(C(=O)Cc2ccc(Nc3ncc(F)c(Nc4ccc(C(=O)Nc5ccccc5Cl)cc4)n3)cc2)CC1 (2.5 µM)
inactive: IRAK3 = 0 | JAK1 = 0 | LCK 0 | LIMK1 = 0 | LIMK2 = 0 | LMTK2 = 0 | LYN 0 | MAP2K1 = 0 | MAP2K2 = 0 | MAP4K2 = 0

COc1ccc2c(c[n+](C)c3c4cc5c(cc4ccc23)OCO5)c1OC [Chelerythrine (chloride)] (10 µM)
inactive: IRAK3 = 0 | JAK1 = 0 | LCK 0 | LIMK1 = 0 | LMTK2 = 0 | LYN 0 | MAP2K1 = 0 | MAP2K2 = 0 | MAP4K2 = 0
active: LIMK2 = 1

C[C@H]1CC[C@]2(NC1)O[C@H]1C[C@H]3[C@@H]4CC[C@H]5C[C@@H](O[C@@H]6O[C@H](CO)[C@H](O[C@@H]7O[C@H](CO)[C@@H](O)[C@H](O[C@@H]8OC[C@@H](O)[C@H](O)[C@H]8O)[C@H]7O[C@@H]7O[C@H](CO)[C@@H](O)[C@H](O)[C@H]7O)[C@H](O)[C@H]6O)CC[C@]5(C)[C@H]4CC[C@]3(C)[C@H]1[C@@H]2C [Tomatine] (2.5 µM)
active: LIMK2 = 1
inactive: IRAK3 = 0 | JAK1 = 0 | LCK 0 | LIMK1 = 0 | LMTK2 = 0 | LYN 0 | MAP2K1 = 0 | MAP2K2 = 0 | MAP4K2 = 0

C/C(O)=C(\C#N)C(=O)Nc1cc(Br)ccc1Br (10 µM)
inactive: IRAK3 = 0 | JAK1 = 0 | LCK 0 | LIMK1 = 0 | LIMK2 = 0 | LMTK2 = 0 | LYN 0 | MAP2K1 = 0 | MAP2K2 = 0 | MAP4K2 = 0

Nc1ncnc2c1ncn2[C@@H]1O[C@@H]2COP(O)(=S)O[C@H]2[C@H]1O (stereo not given in full) [Sp-cAMPS (sodium salt)] (10 µM)
inactive: IRAK3 = 0 | JAK1 = 0 | LCK 0 | LIMK1 = 0 | LIMK2 = 0 | LMTK2 = 0 | LYN 0 | MAP2K1 = 0 | MAP2K2 = 0 | MAP4K2 = 0

COc1ccc(/C=C/c2cc(OC)c(OC)c(OC)c2)cc1 (2.5 µM)
inactive: IRAK3 = 0 | JAK1 = 0 | LCK 0 | LIMK1 = 0 | LIMK2 = 0 | LMTK2 = 0 | LYN 0 | MAP2K1 = 0 | MAP2K2 = 0 | MAP4K2 = 0

CC1C(=O)OC2C(O)C34C5OC(=O)C3(OC3OC(=O)C(O)C34C(C(C)(C)C)C5O)C12O (stereo not given) [Ginkgolide C] (10 µM)
inactive: IRAK3 = 0 | JAK1 = 0 | LCK 0 | LIMK1 = 0 | LIMK2 = 0 | LMTK2 = 0 | LYN 0 | MAP2K1 = 0 | MAP2K2 = 0 | MAP4K2 = 0

C[C@H]1CC[C@]2(NC1)O[C@H]1C[C@H]3[C@@H]4CC[C@H]5C[C@@H](O)CC[C@]5(C)[C@H]4CC[C@]3(C)[C@H]1[C@@H]2C [Tomatidine] (2 µM)
inactive: IRAK3 = 0 | JAK1 = 0 | LCK 0 | LIMK1 = 0 | LIMK2 = 0 | LMTK2 = 0 | LYN 0 | MAP2K1 = 0 | MAP2K2 = 0 | MAP4K2 = 0

N#CC(C#N)=NNc1cccc(Cl)c1 (2.5 µM)
inactive: IRAK3 = 0 | JAK1 = 0 | LCK 0 | LIMK1 = 0 | LIMK2 = 0 | LMTK2 = 0 | LYN 0 | MAP2K1 = 0 | MAP2K2 = 0 | MAP4K2 = 0

CCCCCCCCCCCCCCCCOC[C@H](COP(=O)([O-])OCC[N+](C)(C)C)OC(C)=O (10 µM)
inactive: IRAK3 = 0 | JAK1 = 0 | LCK 0 | LIMK1 = 0 | LIMK2 = 0 | LMTK2 = 0 | LYN 0 | MAP2K1 = 0 | MAP2K2 = 0 | MAP4K2 = 0

O=c1[nH]c2ccccc2n1C1CCN(CCCC(c2ccc(F)cc2)c2ccc(F)cc2)CC1 [Pimozide] (2.5 µM)
inactive: IRAK3 = 0 | JAK1 = 0 | LCK 0 | LIMK1 = 0 | LIMK2 = 0 | LMTK2 = 0 | LYN 0 | MAP2K1 = 0 | MAP2K2 = 0 | MAP4K2 = 0

CC1=C[C@]23C(=O)[C@@H](C=C(CO)[C@@H](O)[C@]2(O)[C@H]1O)[C@H]1[C@@H](C[C@H]3C)C1(C)C [Ingenol] (10 µM)
inactive: IRAK3 = 0 | JAK1 = 0 | LCK 0 | LIMK1 = 0 | LIMK2 = 0 | LMTK2 = 0 | LYN 0 | MAP2K1 = 0 | MAP2K2 = 0 | MAP4K2 = 0

O=C1C=CC[C@@H]2[C@H]3CCCN4CCC[C@@H](CN12)[C@@H]34 [Sophocarpine (monohydrate)] (2.5 µM)
inactive: IRAK3 = 0 | JAK1 = 0 | LCK 0 | LIMK1 = 0 | LIMK2 = 0 | LMTK2 = 0 | LYN 0 | MAP2K1 = 0 | MAP2K2 = 0 | MAP4K2 = 0

O=c1[nH]c2ccccc2n1C1CCN(Cc2ccc(-c3[nH]c4cc5ncnc5cc4nc3-c3ccccc3)cc2)CC1 [AKT inhibitor VIII] (2.5 µM)
inactive: IRAK3 = 0 | JAK1 = 0 | LCK 0 | LIMK1 = 0 | LIMK2 = 0 | LMTK2 = 0 | LYN 0 | MAP2K1 = 0 | MAP2K2 = 0 | MAP4K2 = 0

O=C1c2ccccc2C(=O)c2c1cccc2-c1cnn(C2CCNCC2)c1 [PDK4-IN-1 (hydrochloride)] (10 µM)
inactive: IRAK3 = 0 | JAK1 = 0 | LCK 0 | LIMK1 = 0 | LIMK2 = 0 | LMTK2 = 0 | LYN 0 | MAP2K1 = 0 | MAP2K2 = 0 | MAP4K2 = 0

C=CC(=O)N[C@H]1C=C(C)c2c(-c3cnc4ccccc4c3)c3c(N)ncnc3n2C1 (10 µM)
inactive: IRAK3 = 0 | JAK1 = 0 | LCK 0 | LIMK1 = 0 | LIMK2 = 0 | LMTK2 = 0 | LYN 0 | MAP2K1 = 0 | MAP2K2 = 0 | MAP4K2 = 0

Retrieved one by one from the list above, two records:
C[C@H]1CC[C@]2(NC1)O[C@H]1C[C@H]3[C@@H]4CC[C@H]5C[C@@H](O)CC[C@]5(C)[C@H]4CC[C@]3(C)[C@H]1[C@@H]2C [Tomatidine] (2 µM)
inactive: IRAK3 = 0 | JAK1 = 0 | LCK 0 | LIMK1 = 0 | LIMK2 = 0 | LMTK2 = 0 | LYN 0 | MAP2K1 = 0 | MAP2K2 = 0 | MAP4K2 = 0

O=[N+]([O-])/C=C/c1ccc2c(c1)OCO2 (2.5 µM)
inactive: IRAK3 = 0 | JAK1 = 0 | LCK 0 | LIMK1 = 0 | LIMK2 = 0 | LMTK2 = 0 | LYN 0 | MAP2K1 = 0 | MAP2K2 = 0 | MAP4K2 = 0

Remaining list, next part

O=C(O)c1nn(Cc2ccc(Cl)cc2Cl)c2ccccc12 [Lonidamine] (10 µM)
inactive: IRAK3 = 0 | JAK1 = 0 | LCK 0 | LIMK1 = 0 | LIMK2 = 0 | LMTK2 = 0 | LYN 0 | MAP2K1 = 0 | MAP2K2 = 0 | MAP4K2 = 0
